# PubChem BioAssay AID1259415 (National Center for Advancing Translational Sciences (NCATS), 2018)
# Values joined by “and” are separate entries in the source; they are usually repeats but may differ in a detail not shown here. Equal entries are not always repeated. Out of some 410,000 compounds screened, about 18,000 (4.4%) were called active. Inconclusive results, whose numbers are uncertain, are shown with a selection of clear calls. Cut-off read from the data, not from the text of the source: active = activity change below about -60%; inconclusive = no clear call, values can overlap the other calls; inactive = above about -39%.
# Test: qHTS Assay for inhibitors of the human cytomegalovirus (HCMV)
# Details: HFF cells, HCMV-luciferase reporter, 72 h; at 57.5 µM; active compounds read low
# Outline: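 Inhibition of viral replication was scored as loss of reporter luminescence in HFFs infected with HCMV-luciferase (MOI 1 PFU/cell) for 72 h; compounds tested at 2 doses, normalized to buffer and Salinomycin controls.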
# % is set by controls: 0 for no effect and ±100 for the full control effect.
row,SMILES,"activity change, negative = inhibition"
1,O=c1c2ccccc2nc(/C=C/c2ccccc2)n1CCCO,inconclusive: -53.6%
2,O=C(Cn1ccccc1=O)c1ccc(Cl)cc1,inconclusive: -47.7%
3,CC(=O)SC1CC2=CC(=O)CCC2(C)C2CCC3(C)C(CCC34CCC(=O)O4)C12 (configuration not stated),active: -63.2%
4,COCCCN(C(=O)Cc1ccc(S(=O)(=O)N2CCOCC2)s1)c1c(N)n(Cc2ccccc2)c(=O)[nH]c1=O,inconclusive: 0%
5,CSc1ccc(CN2CCCN(C)CC2)cc1,inactive: 9.07%
6,Cc1ccc(C(=O)c2cn(Cc3ccccc3)c3cc4c(cc3c2=O)OCCO4)cc1,inconclusive: -59.5%
7,CC(=O)Cc1nsc(NC(=O)c2ccc(-c3ccc(F)cc3)o2)n1,inconclusive: -43.3%
8,CCCc1c(-c2ccccc2Br)ncn1Cc1ccccc1OC,active: -72.8%
9,COc1cc([N+](=O)[O-])ccc1-c1ccc(C(=O)Nc2ccc(NC(C)=O)cc2)o1,inconclusive: -41%
10,COc1ccc(C2C(C#N)=C(N)N(N(C)C)C3=C2C(=O)CCC3)cc1 (configuration not stated),inconclusive: -40.7%
11,COc1ccc(CNC(=O)c2ccc3c(c2)N(C)CCS3)cc1,inactive: 57.9%
12,COc1cc(NC(=S)N2CCN(Cc3ccccc3)CC2)cc(OC)c1,inconclusive: -47.6%
13,Cc1cccc(NC(=O)Cn2cc(C(=O)c3ccccc3)c3ccccc32)c1,active: -79.6%
14,CCc1nc(SCc2nc3ccccc3[nH]2)c2oc3ccccc3c2n1,inconclusive: -52%
15,O=C(CCc1ccccc1)N1CCN(c2ccc(Cl)cc2)CC1,inconclusive: -40.6%
16,Cc1ccc(C(=O)Nc2cccc(C(F)(F)F)c2)cc1Nc1cnccn1,inactive: -13.6%
17,CC(c1nnc(Sc2nnnn2-c2ccccc2)n1-c1ccc(F)cc1)N(C)C (configuration not stated),inconclusive: -55.4%
18,O=C(N/N=C/C(Br)=C\c1ccccc1)c1n[nH]c2c1CCC2,active: -79.2%
19,Cc1ccc(NC(=O)Cn2nnc(C(=O)NCc3cccs3)c2N)cc1F,inconclusive: -44.5%
20,CSc1ccccc1C(=O)Nc1cc(C)ccc1C,inconclusive: -46%
21,Cc1cc(SCC(=O)c2cccs2)nc2ccccc12,inactive: 52.4%
22,O=C(/C=C/Nc1ccccc1Oc1ccccc1)c1ccco1,inactive: -28.4%

# Grouped by structure, those above containing a Cl atom.
row,SMILES,"activity change, negative = inhibition"
2,O=C(Cn1ccccc1=O)c1ccc(Cl)cc1,inconclusive: -47.7%
15,O=C(CCc1ccccc1)N1CCN(c2ccc(Cl)cc2)CC1,inconclusive: -40.6%

# Additional structures follow.

row,SMILES,"activity change, negative = inhibition"
1,Cc1nc(NC(=O)c2ccccc2)sc1-c1csc(N)n1,inconclusive: -46%
2,O=C(Cn1cc(SCc2ccc(F)cc2)c2ccccc21)N1CCCC1,inactive: 19.8%
3,CNS(=O)(=O)c1cccc(C(=O)OCc2cc(C(C)=O)ccc2OC)c1,inconclusive: -49.3%
4,O=C(NCCC1=CCCCC1)C1CCC(CNc2nc(=S)[nH]c3ccccc23)CC1 (configuration not stated),active: -62.4%
5,O=c1[nH]c(=O)c2cc([N+](=O)[O-])cc([N+](=O)[O-])c2[nH]1,inconclusive: -50.9%
6,C=C1C(=O)OC2C=C(CO)CCC=C(CO)CC(OC(=O)C(C)C)C12 (configuration not stated),inactive: 7.26%
7,CC1CCN(c2ccc(C(=O)NCc3ccc4c(c3)OCO4)cc2[N+](=O)[O-])CC1,inconclusive: -41.4%
8,O=C(CCN1C(=O)/C(=C/c2ccc(Cl)cc2)SC1=S)Nc1cccc(C(=O)O)c1,inconclusive: -49.4%
9,O=C(OC1CCN(CCCl)CC1)C(c1ccccc1)c1ccccc1,inconclusive: -59.4%
10,Cc1cc(SCC(=O)OC/C(O)=C(\C#N)c2nc3ccccc3[nH]2)c(C)cc1Br,inconclusive: -51.5%
11,O=C(Cn1c(-c2cccs2)cc2ccccc21)NCCCN1CCN(c2ccc(F)cc2)CC1,inactive: -31.2%
12,O=C(c1ccc(-c2ccccc2)cc1)N1CCN(c2nc3ccccc3o2)CC1,inactive: 24.2%
13,CC(=C/c1ccccc1)/C=C1/SC(N2CCOCC2)=NC1=O,inactive: -18.4%
14,COc1ccc(OC)c(N2CC(O)(c3ccccc3)[N+]3=C2SCCC3)c1 (configuration not stated),inconclusive: -56.2%
15,CC1CCCN(Cc2c(O)ccc3c(=O)c(-c4ccccc4Cl)c(C(F)(F)F)oc23)C1 (configuration not stated),inactive: 5.77%
16,CCN(c1ccccc1)S(=O)(=O)c1cc(C(=O)Nc2cccc(Cl)c2)ccc1F,active: -95.4%
17,COc1ccc(N(Cc2ccccc2)S(=O)(=O)c2cccc(C(=O)Nc3ccccn3)c2)cc1,inconclusive: -58%
18,OCCN1CCN(C(=S)c2ccc(-c3ccccc3)cc2)CC1,active: -79.4%
19,CCCOc1ccc(/C=N/NC(=O)C(=O)Nc2ccccn2)cc1,inconclusive: -48.5%
20,CCn1cc(CNC(=O)c2ccc(OC3CCN(Cc4ccccn4)CC3)cc2)cn1,active: -71.4%
21,C=CCn1c(=NC(=O)C2COc3ccccc3O2)sc2cccc(OC)c21 (configuration not stated),inconclusive: 0%
22,Cc1cccc2nc(-c3ccco3)c(Nc3ccccc3)n12,inconclusive: -42%

row,SMILES,"activity change, negative = inhibition"
1,N#Cc1ccc2c(c1)nc1ccccn12,inconclusive: -55.5%
2,COc1ccc(-n2sc3c(c2=S)-c2cc(OC)ccc2NC3(C)C)cc1,active: -68%
3,CCOCCCN(C)C1CCN(C(=O)c2oc3ccccc3c2NC(=O)Cc2ccc(F)cc2)CC1,inconclusive: -49.6%
4,CC(=O)NCC(=O)N1CCC(n2nccc2NC(=O)CCCc2ccccc2)CC1,inconclusive: -47.3%
5,COCCN(C(=O)C(=O)NC1CCCC1)C(C(=O)NC1CCCC1)c1ccccc1F (configuration not stated),inconclusive: -48.3%
6,CC(C)N(C(=O)Cn1cc(S(=O)(=O)CC(=O)Nc2ccccc2)c2ccccc21)C(C)C,inactive: -7.54%
7,CCc1cc2c(=O)c(-c3ccc4c(c3)OCCO4)coc2cc1OS(C)(=O)=O,inconclusive: -56.2%
8,CCOC(=O)CC(=O)c1[nH]c(C)c(C(=O)OCC)c1C,inconclusive: -41.6%
9,CCOc1ccccc1/C=N/NC(=O)CNC(=O)COc1ccccc1,inconclusive: -46.8%
10,C=CCN(CC=C)C(=O)C1c2ccccc2Oc2ccccc21,inconclusive: -41.3%
11,BrC(=C\c1ccccc1)/C=N/n1cnnc1,active: -98.5%
12,COc1ccc(NC(=O)COc2cccc3c2OC(C)(C)C3)cc1OC,inconclusive: -45%
13,CCC(=O)c1ccc2ncccc2c1,inconclusive: -45.2%
14,Cc1ccc(-c2cc(-c3ccccc3)cc(-c3ccccc3)[n+]2-c2ccccc2C(=O)O)cc1,active: -67.5%
15,O=C(NCCN1CCOCC1)c1ccccc1N1C(=O)[C@@H]2Cc3c([nH]c4ccccc34)C(c3ccccc3)N2C1=O (some centres not stated),inactive: 45.3%
16,CCc1ccccc1NS(=O)(=O)c1ccc2[nH]cc(C(=O)NC3CCCC3)c(=O)c2c1,inactive: -10.1% and inactive: 24.4%
17,CCOc1ccc(S(=O)(=O)NCc2ccccn2)cc1NC(=O)c1ccccc1F,inconclusive: -56.4%
18,CCOC(=O)c1ccc(NC(=S)N(CCCN2CCCCC2)Cc2ccco2)cc1,inconclusive: -43.9%
19,Cc1sc2ncn3ncnc3c2c1C,inconclusive: -58.3%
20,COc1ccccc1N1CCN(C2CCCCC2NS(=O)(=O)c2ccccc2)CC1 (configuration not stated),inactive: -12.6%
21,O=C(Nc1cccc(C(F)(F)F)c1)C1CCN(S(=O)(=O)c2cccc3nsnc23)CC1,inconclusive: -54.1%
22,CCOc1cc(N2CCOCC2)c(OCC)cc1NC(=O)c1oc2ccccc2c1C,inconclusive: -42.4%

# Some of the entries so far, as tab-separated lines:
row	SMILES	activity change, negative = inhibition
10	Cc1cc(SCC(=O)OC/C(O)=C(\C#N)c2nc3ccccc3[nH]2)c(C)cc1Br	inconclusive: -51.5%
3	CCOCCCN(C)C1CCN(C(=O)c2oc3ccccc3c2NC(=O)Cc2ccc(F)cc2)CC1	inconclusive: -49.6%
6	CC(C)N(C(=O)Cn1cc(S(=O)(=O)CC(=O)Nc2ccccc2)c2ccccc21)C(C)C	inactive: -7.54%

# The list goes on.

row,SMILES,"activity change, negative = inhibition"
1,C/C(Cc1ccccc1)=N\NC(=O)CNC(=O)c1ccc(F)cc1,inconclusive: -43.5%
2,Nc1nc(SCc2ccc(F)cc2)ns1,active: -74.3%
3,COc1ccc(OC)c(-c2csc(NC(=O)CSc3ccccc3)n2)c1,inconclusive: -41.6%
4,CC1CCCN(c2cccc3c2S(=O)(=O)N([C@H](C)c2ccccc2)C[C@@H](COCc2ccccc2)O3)C1 (some centres not stated),active: -82%
5,Nc1ccc(S(=O)(=O)Nc2cc(Cl)c(N)c(Cl)c2)cc1,inconclusive: -40.6%
6,CCOc1ccc(Br)cc1S(=O)(=O)Nc1ccc(C(=O)OC(C)C(=O)N(C)c2ccccc2)cc1 (configuration not stated),inconclusive: -52.1%
7,COc1ccc(S(=O)(=O)N2CCCCCC2)cc1N(C)S(=O)(=O)c1ccc(Cl)cc1,active: -60.5%
8,O=S(=O)(c1ccc2nc(Nc3ccc(Br)cc3F)ccc2c1)N1CCCC1,inactive: -3.61%
9,CCC1CCCCN1S(=O)(=O)c1ccc(NC(=O)c2snnc2C)cc1 (configuration not stated),inconclusive: -58.1%
10,Cc1ccc(S(=O)(=O)N(C)c2ccc(OCC(=O)Nc3nc4ccccc4s3)cc2)cc1,active: -80.5%
11,O=C(Cn1ncc(Cl)c(Cl)c1=O)c1ccc(Cl)cc1,active: -97.9%
12,COc1ccc(N2CCN(CCNC(=O)Nc3cccc(C)c3C)CC2)cc1,inconclusive: -42.2%
13,COc1cccc(-n2c(=O)c3c4c(sc3n(Cc3ccccc3C#N)c2=O)CCCC4)c1,inactive: 1.54%
14,O=C(CCOc1ccccc1)Nc1ccccc1,inactive: 12.8%
15,COc1ccc(OC)c(CCNC(=O)CSc2ccsc2[N+](=O)[O-])c1,inactive: 9.96%
16,O=C(NCc1ccccn1)C1CCN(Cc2cccc(OCc3ccccc3)c2)CC1,inconclusive: -48.8%
17,CCC(C)(C)n1nnnc1C(c1ccc(C)cc1)N1CCCC1 (configuration not stated),inconclusive: -47.5%
18,O=S(=O)(NC(=NCc1ccccc1)c1ccccc1)c1ccc(Br)cc1,inconclusive: -56.9%
19,O=C(CN1C(=O)c2ccccc2S1(=O)=O)c1ccc2c(c1)OCCCO2,active: -95.8%
20,COc1ccc(C)cc1NC(=O)CCNC(=O)Cn1cnc2ccccc2c1=O,inconclusive: -49%
21,O=[N+]([O-])c1cc([N+](=O)[O-])c2nonc2c1Nc1ccccc1O,inconclusive: -47.1%
